Results published in patent publication US20050158751A1.
No constants are given. Whether binding was seen depends on the method and setting. Some entries that bind do so weakly or less than the wild type.

Biological target: Drosophila Recombination Associated Protein (DRAP), native 20 KDa species from Drosophila embryonic nuclear extracts (Drosophila melanogaster)
Test: retention on Centricon molecular weight cutoff filters; active material behaved as if >30 KDa in 500 mM NaCl

- binding: binds
B1: Drosophila Recombination Associated Protein (DRAP), native 20 KDa species from Drosophila embryonic nuclear extracts (enzyme)
chain: MASNNSSTTDLDSQVNVEDLPITFKVKYIGSEVARGLWGIKYTRRPVDIMVGVAKNLPPNKVLPNCELKVSTDGVQLEIISPKASINHWSYPIDTISYGVQDLVYTRVFAMIVVKDESSPHPFEVHAFVCDSRAMARKLTFALAGRLPGLLATGQGGNR
